The supplement of paper PMC8612539
Converted amounts (≈) assume the structure as drawn. This continues a long series; more values of the same kind are listed elsewhere.

Tested on: Escherichia coli
Test: minimum inhibitory concentration (MIC)
Description: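 Broth microdilution MIC (Sensititre BOPO7F bovine plate, CLSI methods) of 19 antimicrobials against field isolates of P. multocida, M. haemolytica, H. somni (deep nasopharyngeal swabs) and E. coli, Enterococcus spp. (rectal swabs) from weaned dairy heifers. Incubation 16-24 h at 35 C. MIC is the lowest concentration preventing visible growth. Values with <= or > lie at the tested range limits. Trimethoprim-sulfamethoxazole is given as the trimethoprim component of a 1:19 mixture.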

In the case of `CN(C)[C@@H]1C(O)=C(C(N)=O)C(=O)[C@@]2(O)C(O)=C3C(=O)c4c(O)cccc4[C@@](C)(O)[C@H]3C[C@@H]12` [Tetracycline], the minimum inhibitory concentration (isolate (source animal id): 221) is reported as 1 µg/mL (≈ 2.25 µM), the minimum inhibitory concentration (isolate (source animal id): 222) is reported as 1 µg/mL (≈ 2.25 µM) and the minimum inhibitory concentration (isolate (source animal id): 223) is reported as > 8 µg/mL. For the same compound, the minimum inhibitory concentration (isolate (source animal id): 224) was > 8 µg/mL, the minimum inhibitory concentration (isolate (source animal id): 225) was > 8 µg/mL and the minimum inhibitory concentration (isolate (source animal id): 226) was > 8 µg/mL. The minimum inhibitory concentration (isolate (source animal id): 227) was > 8 µg/mL, the minimum inhibitory concentration (isolate (source animal id): 228) was > 8 µg/mL and the minimum inhibitory concentration (isolate (source animal id): 229) was > 8 µg/mL. The minimum inhibitory concentration (isolate (source animal id): 230) was 1 µg/mL (≈ 2.25 µM), the minimum inhibitory concentration (isolate (source animal id): 231) was > 8 µg/mL and the minimum inhibitory concentration (isolate (source animal id): 232) was 2 µg/mL (≈ 4.5 µM). The minimum inhibitory concentration (isolate (source animal id): 233) was > 8 µg/mL, the minimum inhibitory concentration (isolate (source animal id): 234) was 2 µg/mL (≈ 4.5 µM) and the minimum inhibitory concentration (isolate (source animal id): 235) was > 8 µg/mL. For the same compound, the minimum inhibitory concentration (isolate (source animal id): 236) was > 8 µg/mL, the minimum inhibitory concentration (isolate (source animal id): 237) was > 8 µg/mL and the minimum inhibitory concentration (isolate (source animal id): 238) was > 8 µg/mL. For the same compound, the minimum inhibitory concentration (isolate (source animal id): 239) was 2 µg/mL (≈ 4.5 µM), the minimum inhibitory concentration (isolate (source animal id): 240) was > 8 µg/mL and the minimum inhibitory concentration (isolate (source animal id): 241) was > 8 µg/mL. For the same compound, the minimum inhibitory concentration (isolate (source animal id): 242) was 1 µg/mL (≈ 2.25 µM), the minimum inhibitory concentration (isolate (source animal id): 243) was > 8 µg/mL and the minimum inhibitory concentration (isolate (source animal id): 244) was 2 µg/mL (≈ 4.5 µM). For the same compound, the minimum inhibitory concentration (isolate (source animal id): 245) was > 8 µg/mL, the minimum inhibitory concentration (isolate (source animal id): 246) was > 8 µg/mL and the minimum inhibitory concentration (isolate (source animal id): 247) was > 8 µg/mL. The minimum inhibitory concentration (isolate (source animal id): 248) was > 8 µg/mL, the minimum inhibitory concentration (isolate (source animal id): 249) was 2 µg/mL (≈ 4.5 µM) and the minimum inhibitory concentration (isolate (source animal id): 250) was > 8 µg/mL. The minimum inhibitory concentration (isolate (source animal id): 251) was > 8 µg/mL, the minimum inhibitory concentration (isolate (source animal id): 252) was > 8 µg/mL and the minimum inhibitory concentration (isolate (source animal id): 253) was > 8 µg/mL. For the same compound, the minimum inhibitory concentration (isolate (source animal id): 254) was > 8 µg/mL, the minimum inhibitory concentration (isolate (source animal id): 255) was > 8 µg/mL and the minimum inhibitory concentration (isolate (source animal id): 256) was > 8 µg/mL. The minimum inhibitory concentration (isolate (source animal id): 257) was > 8 µg/mL, the minimum inhibitory concentration (isolate (source animal id): 258) was 1 µg/mL (≈ 2.25 µM) and the minimum inhibitory concentration (isolate (source animal id): 259) was > 8 µg/mL. The minimum inhibitory concentration (isolate (source animal id): 260) was > 8 µg/mL, the minimum inhibitory concentration (isolate (source animal id): 261) was 1 µg/mL (≈ 2.25 µM) and the minimum inhibitory concentration (isolate (source animal id): 262) was > 8 µg/mL. For the same compound, the minimum inhibitory concentration (isolate (source animal id): 263) was > 8 µg/mL, the minimum inhibitory concentration (isolate (source animal id): 264) was 2 µg/mL (≈ 4.5 µM) and the minimum inhibitory concentration (isolate (source animal id): 265) was > 8 µg/mL. The minimum inhibitory concentration (isolate (source animal id): 266) was 1 µg/mL (≈ 2.25 µM), the minimum inhibitory concentration (isolate (source animal id): 267) was > 8 µg/mL and the minimum inhibitory concentration (isolate (source animal id): 268) was > 8 µg/mL. For the same compound, the minimum inhibitory concentration (isolate (source animal id): 269) was > 8 µg/mL, the minimum inhibitory concentration (isolate (source animal id): 270) was > 8 µg/mL and the minimum inhibitory concentration (isolate (source animal id): 271) was > 8 µg/mL. For the same compound, the minimum inhibitory concentration (isolate (source animal id): 272) was 1 µg/mL (≈ 2.25 µM), the minimum inhibitory concentration (isolate (source animal id): 273) was > 8 µg/mL and the minimum inhibitory concentration (isolate (source animal id): 274) was > 8 µg/mL. The minimum inhibitory concentration (isolate (source animal id): 275) was > 8 µg/mL, the minimum inhibitory concentration (isolate (source animal id): 276) was > 8 µg/mL and the minimum inhibitory concentration (isolate (source animal id): 277) was 1 µg/mL (≈ 2.25 µM). The minimum inhibitory concentration (isolate (source animal id): 278) was 1 µg/mL (≈ 2.25 µM), the minimum inhibitory concentration (isolate (source animal id): 279) was > 8 µg/mL and the minimum inhibitory concentration (isolate (source animal id): 280) was > 8 µg/mL. The minimum inhibitory concentration (isolate (source animal id): 281) was > 8 µg/mL, the minimum inhibitory concentration (isolate (source animal id): 282) was 1 µg/mL (≈ 2.25 µM) and the minimum inhibitory concentration (isolate (source animal id): 283) was 2 µg/mL (≈ 4.5 µM). For the same compound, the minimum inhibitory concentration (isolate (source animal id): 284) was > 8 µg/mL, the minimum inhibitory concentration (isolate (source animal id): 285) was 1 µg/mL (≈ 2.25 µM) and the minimum inhibitory concentration (isolate (source animal id): 286) was > 8 µg/mL. For the same compound, the minimum inhibitory concentration (isolate (source animal id): 287) was > 8 µg/mL, the minimum inhibitory concentration (isolate (source animal id): 288) was 1 µg/mL (≈ 2.25 µM) and the minimum inhibitory concentration (isolate (source animal id): 289) was 1 µg/mL (≈ 2.25 µM). For the same compound, the minimum inhibitory concentration (isolate (source animal id): 290) was > 8 µg/mL, the minimum inhibitory concentration (isolate (source animal id): 291) was > 8 µg/mL and the minimum inhibitory concentration (isolate (source animal id): 292) was > 8 µg/mL. The minimum inhibitory concentration (isolate (source animal id): 293) was > 8 µg/mL, the minimum inhibitory concentration (isolate (source animal id): 294) was > 8 µg/mL and the minimum inhibitory concentration (isolate (source animal id): 295) was > 8 µg/mL. For the same compound, the minimum inhibitory concentration (isolate (source animal id): 296) was > 8 µg/mL, the minimum inhibitory concentration (isolate (source animal id): 297) was 2 µg/mL (≈ 4.5 µM) and the minimum inhibitory concentration (isolate (source animal id): 298) was > 8 µg/mL. For the same compound, the minimum inhibitory concentration (isolate (source animal id): 299) was > 8 µg/mL, the minimum inhibitory concentration (isolate (source animal id): 300) was > 8 µg/mL and the minimum inhibitory concentration (isolate (source animal id): 301) was > 8 µg/mL. The minimum inhibitory concentration (isolate (source animal id): 302) was > 8 µg/mL, the minimum inhibitory concentration (isolate (source animal id): 303) was 1 µg/mL (≈ 2.25 µM) and the minimum inhibitory concentration (isolate (source animal id): 304) was > 8 µg/mL. For the same compound, the minimum inhibitory concentration (isolate (source animal id): 305) was 1 µg/mL (≈ 2.25 µM), the minimum inhibitory concentration (isolate (source animal id): 306) was > 8 µg/mL and the minimum inhibitory concentration (isolate (source animal id): 307) was > 8 µg/mL. The minimum inhibitory concentration (isolate (source animal id): 308) was > 8 µg/mL, the minimum inhibitory concentration (isolate (source animal id): 309) was > 8 µg/mL and the minimum inhibitory concentration (isolate (source animal id): 310) was 2 µg/mL (≈ 4.5 µM). The minimum inhibitory concentration (isolate (source animal id): 311) was > 8 µg/mL, the minimum inhibitory concentration (isolate (source animal id): 312) was > 8 µg/mL and the minimum inhibitory concentration (isolate (source animal id): 313) was > 8 µg/mL. For the same compound, the minimum inhibitory concentration (isolate (source animal id): 314) was > 8 µg/mL, the minimum inhibitory concentration (isolate (source animal id): 315) was 1 µg/mL (≈ 2.25 µM) and the minimum inhibitory concentration (isolate (source animal id): 316) was > 8 µg/mL. The minimum inhibitory concentration (isolate (source animal id): 317) was > 8 µg/mL, the minimum inhibitory concentration (isolate (source animal id): 318) was > 8 µg/mL and the minimum inhibitory concentration (isolate (source animal id): 319) was > 8 µg/mL. For the same compound, the minimum inhibitory concentration (isolate (source animal id): 320) was > 8 µg/mL, the minimum inhibitory concentration (isolate (source animal id): 321) was > 8 µg/mL and the minimum inhibitory concentration (isolate (source animal id): 322) was > 8 µg/mL. The minimum inhibitory concentration (isolate (source animal id): 323) was 1 µg/mL (≈ 2.25 µM), the minimum inhibitory concentration (isolate (source animal id): 324) was > 8 µg/mL and the minimum inhibitory concentration (isolate (source animal id): 325) was 1 µg/mL (≈ 2.25 µM). For the same compound, the minimum inhibitory concentration (isolate (source animal id): 326) was > 8 µg/mL, the minimum inhibitory concentration (isolate (source animal id): 327) was > 8 µg/mL and the minimum inhibitory concentration (isolate (source animal id): 328) was 1 µg/mL (≈ 2.25 µM). The minimum inhibitory concentration (isolate (source animal id): 329) was > 8 µg/mL, the minimum inhibitory concentration (isolate (source animal id): 330) was > 8 µg/mL and the minimum inhibitory concentration (isolate (source animal id): 331) was > 8 µg/mL. The minimum inhibitory concentration (isolate (source animal id): 332) was 1 µg/mL (≈ 2.25 µM), the minimum inhibitory concentration (isolate (source animal id): 333) was > 8 µg/mL and the minimum inhibitory concentration (isolate (source animal id): 334) was > 8 µg/mL. The minimum inhibitory concentration (isolate (source animal id): 335) was > 8 µg/mL, the minimum inhibitory concentration (isolate (source animal id): 336) was > 8 µg/mL and the minimum inhibitory concentration (isolate (source animal id): 337) was > 8 µg/mL. The minimum inhibitory concentration (isolate (source animal id): 338) was > 8 µg/mL, the minimum inhibitory concentration (isolate (source animal id): 339) was > 8 µg/mL and the minimum inhibitory concentration (isolate (source animal id): 340) was > 8 µg/mL. The minimum inhibitory concentration (isolate (source animal id): 341) was 1 µg/mL (≈ 2.25 µM).
